This is an account of results in PubChem BioAssay AID2685 (National Center for Advancing Translational Sciences (NCATS), 2010).

A short description of the experiment: qHTS Assay for Lipid Storage Modulators in Drosophila S3 Cells.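 For cell number change: cells counted by Cell Tracker Red CMTPX staining in the red channel.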 The conditions noted are these: BODIPY lipid droplet fluorescence, 18-24 h; for cell number change: measured here: cell count max response, cells fed with added oleic acid. In outline: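 Laser-scanning cytometry quantifies lipid droplet accumulation (500–530 nm total intensity; droplet/cell object ratio) in oleic acid-fed (400 uM added) Drosophila S3 cells treated with a concentration series. 20 uM Triacsin C defined 100% inhibition.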

[1] abbreviates: measured here: lipid fluorescence (Fed channel) AC50, cells fed with added oleic acid.
The mark [2] stands for this setting: measured here: cell number channel AC50, cells fed with added oleic acid.

The other results are listed elsewhere or left out. Shown are side measurements of this screen, not its main read-out; they come without a call. Most of these compounds were active or inconclusive in the main read-out, so they are no random draw. Words in brackets tell the shape of the fitted curve; partial curves, single points and poor fits give uncertain potencies.

Take `COCCCN(C(=O)Cc1ccc(Cl)c(Cl)c1)c1c(N)n(Cc2ccccc2)c(=O)[nH]c1=O`: the cell number change is 2.21%. In addition, under setting [1], the concentration at half-maximal activity (AC50) is 2.06 µM [falling, partial curve]. For the molecule `C/C(=N\NC(=O)c1nnn(-c2nonc2N)c1CN1CCOCC1)c1ccc(CC(C)C)cc1`, the cell number change is -6.11%. Moreover, under setting [1], the AC50 was 16.4 µM [falling, single point]. For `Cc1ccccc1Nc1nnc(SCC(=O)NC(=O)NCc2ccco2)s1`, the cell number change was determined as 22.2%. Besides, the AC50 under setting [2] was 2.59 µM [rising, full curve, poor fit].

Turning to `O=C(CN1C(=O)CSc2ccc(S(=O)(=O)N3CCOCC3)cc21)NCc1cccnc1`, the AC50 under setting [1] was 0.13 µM [rising, full curve, poor fit]. On to `COC(=O)C1=C(CSc2nccn2C)NC(=O)NC1c1cc(C)ccc1C` (configuration not stated), for which the cell number change amounted to 73.6%. Also, the AC50 under setting [2] is 2.31 µM [rising, full curve, poor fit].

On to `O=C(CC(=O)c1c(F)cccc1Cl)c1ccccc1O`, for which the cell number change was -63.2%. Besides, under setting [2], the AC50 is 29.1 µM [falling, single point]. In addition, the AC50 under setting [1] is 29.1 µM [falling, single point]. Take `COc1ccc(NC(=O)CSc2nccn2Cc2ccccc2)c(OC)c1`: the cell number change was 31.6%. The AC50 under setting [2] is 5.17 µM [rising, full curve, poor fit]. As to `O=S(=O)(Nc1cccc(-c2cn3cccnc3n2)c1)c1ccc(Cl)cc1`, the cell number change is 11.8%. Also, the AC50 under setting [1] was 29.1 µM [falling, single point]. For `Cc1ccc(C(=O)Nc2ccccc2-c2ccccc2)o1`, the cell number change was found to be 56.3%. Also, the AC50 under setting [2] was 0.82 µM [rising, full curve]. Besides, the AC50 under setting [1] is 29.1 µM [rising, single point].

On to `COC(=O)C1=C(C)N(C)C(=O)NC1c1ccccc1` (configuration not stated), for which, under setting [1], the AC50 was 6.51 µM [falling, single point].

As for `CN(CCNC(=O)c1cc2c(=O)n(C)c3ccccc3c2n1C)Cc1ccccc1`, the cell number change was 2.9%. `CCOC(=O)CNC(=O)COc1ccc(Cl)cc1Br`: the cell number change worked out at 13%. Regarding `COc1ccc(CNC(C)C2COc3ccccc3O2)c(OC)c1` (configuration not stated), the cell number change is -30.3%. Under setting [2], the AC50 is 20.6 µM [falling, single point]. Further, the AC50 under setting [1] is 0.13 µM [falling, full curve, poor fit]. Consider `CCn1c(SCC(=O)Nc2ccc(OC)c(OC)c2)nnc1-c1cnccn1`, for which the cell number change is 26.6%.

Take `COc1ccc2c(c1)c(N=NC(N)=S)c(O)n2CC(=O)c1ccccc1`: the cell number change was -37.1%. Besides, the AC50 under setting [2] was 13 µM [falling, partial curve, poor fit]. In addition, under setting [1], the AC50 is 14.6 µM [falling, single point]. On to `O=C(Oc1ccc(OC(=O)N2CCCCC2)cc1)c1ccccc1`, for which the cell number change was -36.9%. Under setting [1], the AC50 is 20.6 µM [falling, single point]. As for `CCC(=O)Nc1ccc(C(=O)Cn2ncc(Cl)c(Cl)c2=O)cc1`, the cell number change was found to be 0.793%. Further, the AC50 under setting [1] is 6.51 µM [falling, single point]. Turning to `O=C1C=C(c2ccnc3cc(Cl)ccc23)C[C@@H](c2ccc3c(c2)OCO3)C1`, the cell number change is -15.3%. Under setting [2], the AC50 is 0.146 µM [falling, single point]. For the molecule `Cc1cc(C)c(NC(=O)CN(C)C(=O)CCC(=O)c2ccc(C)s2)c(C)c1`, the cell number change is 13%. For the same molecule, the AC50 under setting [1] is 5.8 µM [rising, full curve]. For the molecule `c1ccc(Cn2c(NCc3ccccn3)nc3ccccc32)cc1`, the cell number change is -12.4%. For the same molecule, the half-maximal activity concentration (AC50) under setting [1] is 0.651 µM [rising, full curve, poor fit]. Turning to `CN1CCN(C(=O)C2CCN(c3ncc(C(F)(F)F)cc3Cl)CC2)CC1`, the AC50 under setting [1] is 29.1 µM [rising, single point]. Consider `CCn1c2ccccc2c2cc(NC(C)=O)ccc21`, for which the cell number change is 15.6%. `Cc1cc(C)nc(SCC(=O)Nc2ccc(S(=O)(=O)Nc3nccs3)cc2)n1`: the AC50 under setting [1] is 14.6 µM [rising, partial curve]. On to `Cc1ccc(N(Cc2ccccc2)C(=O)c2cccc(S(=O)(=O)N3CCOCC3)c2)cc1`, for which the cell number change stood at 55%. Besides, the AC50 under setting [2] was 8.2 µM [rising, partial curve]. Regarding `CCOc1ccc(-c2ccc(/C=C3/C(=N)N4C(C)=CSC4=NC3=O)o2)c([N+](=O)[O-])c1`, the cell number change is -6.25%. In addition, the AC50 under setting [1] was 29.1 µM [falling, single point]. Take `Nc1ncnc(SCc2c(F)cccc2Cl)n1`: the cell number change was 12.5%. Further, the AC50 under setting [2] was 6.51 µM [falling, single point]. In addition, the concentration at half-maximal activity (AC50) under setting [1] was 4.61 µM [falling, single point].

For the molecule `COc1cccc(C(=O)Nc2ccc3[nH]ncc3c2)c1`, the cell number change is 22.5%. Besides, under setting [1], the AC50 is 29.1 µM [rising, single point].

With `Cc1cc(C)c2sc(NNC(=O)C3COc4ccccc4O3)nc2c1` (configuration not stated), the cell number change is -32.8%. Besides, the AC50 under setting [2] was 29.1 µM [falling, single point]. Moreover, under setting [1], the AC50 was 29.1 µM [falling, single point]. With `CC(=O)c1sc(NC(=O)c2ccccc2C)nc1C`, the cell number change was determined as 37.8%.

On to `COc1ccc2nc(N(CCN(C)C)C(=O)c3ccc(C(=O)c4ccccc4)cc3)sc2c1`, for which the cell number change was determined as 33.2%. For the same molecule, the AC50 under setting [2] is 0.082 µM [rising, full curve, poor fit]. Further, the AC50 under setting [1] was 6.51 µM [rising, partial curve]. As to `Cc1cc(N/C=C/C(=O)c2ccccc2)ccc1Br`, the cell number change is -19.2%.

For the molecule `Cc1cc(=O)[nH]c(NCc2ccc(Cl)cc2)n1`, the cell number change is -33.4%. Moreover, the AC50 under setting [2] was 0.164 µM [falling, full curve, poor fit]. Regarding `C=CCN1N=C(/C=C/c2ccc(C)cc2)CCC1=O`, the cell number change was -58.6%. In addition, the AC50 under setting [2] is 16.4 µM [falling, partial curve]. In addition, under setting [1], the AC50 was 11.6 µM [falling, partial curve]. `Cc1ccc(C(=O)N(c2ccccn2)C(C)c2ccco2)cc1` (configuration not stated): the cell number change was found to be 7.93%. Under setting [1], the AC50 is 29.1 µM [falling, single point]. As for `COc1cccc(N2CCN(Cc3cccnc3)CC2)c1`, the cell number change is -4.35%. For the same molecule, under setting [1], the AC50 is 0.00461 µM [falling, full curve, poor fit]. In the case of `O=C(COc1ccc2ccccc2c1)Nc1ccc2c3c(cccc13)CC2`, the cell number change was -30.5%. In addition, the AC50 under setting [2] is 29.1 µM [falling, single point]. Moreover, the AC50 under setting [1] was 16.4 µM [falling, single point]. Consider `CC(Sc1ccccn1)C(=O)Nc1ccccc1` (configuration not stated), for which the cell number change stood at 11.9%. For the same molecule, the AC50 under setting [1] was 11.6 µM [rising, single point]. Consider `Nc1nn(-c2cccc(F)n2)cc1-c1ccccc1`, for which the cell number change came out at 27.4%. For the molecule `CCC(CC)NC(=O)Nc1ccc(F)c(Cl)c1`, the cell number change was -37.5%. Under setting [2], the AC50 was 1.16 µM [falling, full curve, poor fit]. Further, the half-maximal activity concentration (AC50) under setting [1] was 0.00517 µM [falling, full curve, poor fit].
